The list shows only some results of the screen, not a fair sample: it gathers tests that were run many times, whatever their T/C, doses with no T/C, and many T/C values between a quarter and a half above the control. Other doses and runs of a compound stand elsewhere. T/C: endpoint of the treated group in % of that of the vehicle group. Some entries give survivors of the animals treated and no T/C: the source files T/C as zero there, which appears to mark a toxic dose or a test without result, not a measured value. Some doses without a T/C left all or most animals alive at the check, yet need not have been tolerated: survival well below the control is almost never listed, so the zero probably covers shortened survival too. Survivors were counted at the toxicity check, usually on the fifth day, unless a day is given; later deaths do not show. Schedules are NCI's codes, taken here to give the interval after Q, in days (D) or hours (H), and the number of doses after X. Brackets with × stand for listed records that agree. Some entries were tested several times; the results are listed from low to high. For survival time, this PubChem deposit counts one and a half times the control or more as active, and values a quarter to a half above the control carry no call in these data; other NCI protocols may use other cut-offs. Some T/C values carry the count of animals alive at the toxicity check (mostly the fifth day); without a count, all were alive then.
Tested on: P388 leukemia ip, CD2F1 mice, survival T/C
Assay: NCI In Vivo Anticancer Drug Screen. Data for tumor model P388 Leukemia (intraperitoneal) in CD2F1 (CDF1) mice
Conditions: T/C endpoint: median survival time, higher T/C = longer survival
[1] = dose: 32.0 mg/kg/injection, schedule: Q01DX009 (ip), vehicle: water
[2] = dose: 60.0 mg/kg/injection, schedule: Q01DX005 (ip), vehicle: Klucel (hydroxypropylcellulose) (HPC)
[3] = dose: 120.0 mg/kg/injection, schedule: Q01DX005 (ip), vehicle: Klucel (hydroxypropylcellulose) (HPC)

Which T/C (dose: 1.0 mg/kg/injection, schedule: Q01DX009 (ip), vehicle: saline, evaluated on day 5) does the source give for `Cc1c(N)nc([C@H](CC(N)=O)NC[C@H](N)C(N)=O)nc1C(=O)N[C@H](C(=O)N[C@H](C)[C@@H](O)[C@H](C)C(=O)N[C@H](C(=O)NCCc1nc(-c2nc(C(=O)NCCC[S+](C)C)cs2)cs1)[C@@H](C)O)C(OC1OC(CO)C(O)C(O)C1OC1OC(CO)C(O)C(OC(N)=O)C1O)c1cnc[nH]1` (some centres not stated) here?
The T/C was 71, 87, 98, 104 % of control.

What about the T/C (dose: 1.0 mg/kg/injection, schedule: Q01DX009 (ip), vehicle: saline, evaluated on day 30) of the same molecule?
The T/C was 98 and 104 % of control.

What about the T/C (dose: 1.0 mg/kg/injection, schedule: Q01DX009 (ip), vehicle: saline, evaluated on day 60) of the same molecule?
Its T/C is 104 % of control.

What about the survivor count (dose: 1.0 mg/kg/injection, schedule: Q01DX009 (ip), vehicle: saline) of the same molecule?
Its survivor count is 10 of 10 (2×).

And the T/C (dose: 2.0 mg/kg/injection, schedule: Q01DX009 (ip), vehicle: saline, evaluated on day 5)?
Its T/C is 63, 96, 97, 107, 109 % of control.

What about the T/C (dose: 2.0 mg/kg/injection, schedule: Q01DX009 (ip), vehicle: saline, evaluated on day 30) of the same molecule?
Its T/C is 97 and 104 % of control.

What about the T/C (dose: 2.0 mg/kg/injection, schedule: Q01DX009 (ip), vehicle: saline, evaluated on day 45) of the same molecule?
Its T/C is 91 % of control.

What about the T/C (dose: 2.0 mg/kg/injection, schedule: Q01DX009 (ip), vehicle: saline, evaluated on day 60) of the same molecule?
The T/C was 107 and 109 % of control.

And the survivor count (dose: 2.0 mg/kg/injection, schedule: Q01DX009 (ip), vehicle: saline)?
The survivor count was 10 of 10.

What about the T/C (dose: 2.0 mg/kg/injection, schedule: Q01DX009 (ip), vehicle: water) of the same molecule?
The T/C was 106 (2×), 111, 112, 126 % of control.

What about the T/C (dose: 4.0 mg/kg/injection, schedule: Q01DX009 (ip), vehicle: saline, evaluated on day 5) of the same molecule?
The T/C was 59, 76, 98, 99, 107, 108, 110 % of control.

And the T/C (dose: 4.0 mg/kg/injection, schedule: Q01DX009 (ip), vehicle: saline, evaluated on day 6)?
Its T/C is 130 % of control.

What about the T/C (dose: 4.0 mg/kg/injection, schedule: Q01DX009 (ip), vehicle: saline, evaluated on day 30) of the same molecule?
Its T/C is 98, 107, 109 % of control.

What about the T/C (dose: 4.0 mg/kg/injection, schedule: Q01DX009 (ip), vehicle: saline, evaluated on day 45) of the same molecule?
Its T/C is 95 % of control.

What about the T/C (dose: 4.0 mg/kg/injection, schedule: Q01DX009 (ip), vehicle: saline, evaluated on day 60) of the same molecule?
The T/C was 109 and 110 % of control.

And the survivor count (dose: 4.0 mg/kg/injection, schedule: Q01DX009 (ip), vehicle: saline)?
Its survivor count is 10 of 10.

And the T/C (dose: 4.0 mg/kg/injection, schedule: Q01DX009 (ip), vehicle: water, evaluated on day 20)?
The T/C was 115 % of control.

What about the T/C (dose: 4.0 mg/kg/injection, schedule: Q01DX009 (ip), vehicle: water, evaluated on day 30) of the same molecule?
Its T/C is 95, 98 [5 of 6 alive], 99, 106, 107, 111, 120, 122, 123, 126, 127, 128, 144 % of control.

And the T/C (dose: 8.0 mg/kg/injection, schedule: Q01DX009 (ip), vehicle: saline, evaluated on day 5)?
The T/C was 66, 74, 94, 103, 105, 109, 111, 116, 122 % of control.

What about the T/C (dose: 8.0 mg/kg/injection, schedule: Q01DX009 (ip), vehicle: saline, evaluated on day 6) of the same molecule?
Its T/C is 132 % of control.

What about the T/C (dose: 8.0 mg/kg/injection, schedule: Q01DX009 (ip), vehicle: saline, evaluated on day 30) of the same molecule?
The T/C was 103 and 109 % of control (2×).

What about the T/C (dose: 8.0 mg/kg/injection, schedule: Q01DX009 (ip), vehicle: saline, evaluated on day 45) of the same molecule?
The T/C was 91 % of control.

What about the T/C (dose: 8.0 mg/kg/injection, schedule: Q01DX009 (ip), vehicle: saline, evaluated on day 60) of the same molecule?
Its T/C is 111 and 113 % of control.

What about the survivor count (dose: 8.0 mg/kg/injection, schedule: Q01DX009 (ip), vehicle: saline) of the same molecule?
Its survivor count is 10 of 10.

And the T/C (dose: 8.0 mg/kg/injection, schedule: Q01DX009 (ip), vehicle: water, evaluated on day 20)?
Its T/C is 108 % of control.

What about the T/C (dose: 8.0 mg/kg/injection, schedule: Q01DX009 (ip), vehicle: water, evaluated on day 30) of the same molecule?
The T/C was 93, 104 (3×), 106 (2×), 108, 113 (2×), 117, 126, 131, 136 % of control.

What about the T/C (dose: 12.0 mg/kg/injection, schedule: Q01DX009 (ip), vehicle: saline) of the same molecule?
Its T/C is 127 % of control.

And the T/C (dose: 16.0 mg/kg/injection, schedule: Q01DX009 (ip), vehicle: saline, evaluated on day 5)?
The T/C was 61, 67, 93, 103, 112, 115, 125 % of control.

And the T/C (dose: 16.0 mg/kg/injection, schedule: Q01DX009 (ip), vehicle: saline, evaluated on day 30)?
The T/C was 103, 112, 118 % of control.

And the T/C (dose: 16.0 mg/kg/injection, schedule: Q01DX009 (ip), vehicle: saline, evaluated on day 45)?
The T/C was 91 % of control.

And the T/C (dose: 16.0 mg/kg/injection, schedule: Q01DX009 (ip), vehicle: saline, evaluated on day 60)?
The T/C was 115 and 127 % of control.

And the survivor count (dose: 16.0 mg/kg/injection, schedule: Q01DX009 (ip), vehicle: saline)?
Its survivor count is 10 of 10.

What about the T/C (dose: 16.0 mg/kg/injection, schedule: Q01DX009 (ip), vehicle: water, evaluated on day 20) of the same molecule?
The T/C was 100 % of control.

What about the T/C (dose: 16.0 mg/kg/injection, schedule: Q01DX009 (ip), vehicle: water, evaluated on day 30) of the same molecule?
Its T/C is 88, 90, 92, 98, 99 (2×), 101, 102, 109 (2×), 110, 117, 136 % of control.

And the T/C (dose: 32.0 mg/kg/injection, schedule: Q01DX009 (ip), vehicle: saline, evaluated on day 5)?
The T/C was 51 (2×), 92, 97, 98, 111, 112 % of control.

And the T/C (dose: 32.0 mg/kg/injection, schedule: Q01DX009 (ip), vehicle: saline, evaluated on day 30)?
The T/C was 97 and 111 % of control.

What about the T/C (dose: 32.0 mg/kg/injection, schedule: Q01DX009 (ip), vehicle: saline, evaluated on day 45) of the same molecule?
Its T/C is 91 % of control.

And the T/C (dose: 32.0 mg/kg/injection, schedule: Q01DX009 (ip), vehicle: saline, evaluated on day 60)?
Its T/C is 98 and 113 % of control.

And the survivor count (dose: 32.0 mg/kg/injection, schedule: Q01DX009 (ip), vehicle: saline)?
Its survivor count is 7 of 10 and 8 of 10.

And the T/C [1]?
Its T/C is 86, 98, 98 % of control [5 of 6 alive].

What about the survivor count [1] of the same molecule?
The survivor count was 2 of 3 and 6 of 6 (2×).

What about the T/C (dose: 32.0 mg/kg/injection, schedule: Q04DX003 (ip), vehicle: saline) of the same molecule?
The T/C was 125 % of control.

How did the survivor count (dose: 400.0 mg/kg/injection, schedule: Q01DX001 (ip), vehicle: saline with Tween-80) turn out when `O=C1CC2C(CC3OC(=O)C4C3C23COC4(O)C(O)C3)c2occc21` (configuration not stated) was run?
The survivor count was 3 of 6.

With `CCOC(=O)Cn1/c(=N/N=C(\C)c2ccc([N+](=O)[O-])o2)sc2cc(Cl)ccc21` as the molecule, how does the survivor count [2] read?
The survivor count was 5 of 6.

How did the survivor count [3] turn out when `COc1ccc(C(NC(N)=O)c2cc3c(cc2OC(C)=O)OCO3)c(OC)c1` (configuration not stated) was run?
Its survivor count is 6 of 6.

What about the survivor count (dose: 240.0 mg/kg/injection, schedule: Q01DX005 (ip), vehicle: Klucel (hydroxypropylcellulose) (HPC)) of the same molecule?
The survivor count was 6 of 6.

Which T/C (dose: 0.06 mg/kg/injection, schedule: Q01DX009 (ip), vehicle: saline + alcohol) does the source give for `CC(C)[C@]12O[C@H]1[C@@H]1O[C@]13[C@]1(O[C@H]1C[C@H]1C4=C(C(=O)OC4)[C@@H](O)C[C@@]13C)[C@@H]2O` here?
The T/C was 128 % of control.

What about the T/C (dose: 0.13 mg/kg/injection, schedule: Q01DX009 (ip), vehicle: saline + alcohol) of the same molecule?
The T/C was 130 and 136 % of control.

And the T/C (dose: 0.2 mg/kg/injection, schedule: Q01DX009 (ip), vehicle: saline + alcohol)?
Its T/C is 134 % of control.

What about the T/C (dose: 0.25 mg/kg/injection, schedule: Q01DX005 (ip), vehicle: saline + alcohol) of the same molecule?
Its T/C is 131 % of control.

What about the survivor count (dose: 0.4 mg/kg/injection, schedule: Q01DX009 (ip), vehicle: saline + alcohol) of the same molecule?
Its survivor count is 5 of 6.

And the survivor count (dose: 0.5 mg/kg/injection, schedule: Q01DX005 (ip), vehicle: saline + alcohol)?
The survivor count was 6 of 6.

And the survivor count (dose: 0.5 mg/kg/injection, schedule: Q01DX009 (ip), vehicle: saline + alcohol)?
Its survivor count is 4 of 10 and 5 of 10.

What about the survivor count (dose: 0.8 mg/kg/injection, schedule: Q01DX009 (ip), vehicle: saline + alcohol) of the same molecule?
Its survivor count is 2 of 6.

What about the survivor count (dose: 1.0 mg/kg/injection, schedule: Q01DX009 (ip), vehicle: saline + alcohol) of the same molecule?
The survivor count was 0 of 10.

And the survivor count (dose: 1.6 mg/kg/injection, schedule: Q01DX009 (ip), vehicle: saline + alcohol)?
The survivor count was 0 of 6.

How did the T/C (dose: 1.25 mg/kg/injection, schedule: Q01DX009 (ip), vehicle: saline) turn out when `C/C=C(\C)C(=O)OC1C2C(C)=CC(=O)C(O)C2(C)C2C3(O)OCC24C1OC(=O)C(OC(C)=O)C4C(C)C3O` (configuration not stated) was run?
The T/C was 131 % of control.

What about the survivor count (dose: 7.5 mg/kg/injection, schedule: Q01DX005 (ip), vehicle: Klucel (hydroxypropylcellulose) (HPC)) of the same molecule?
The survivor count was 0 of 6.

What about the survivor count (dose: 15.0 mg/kg/injection, schedule: Q01DX005 (ip), vehicle: Klucel (hydroxypropylcellulose) (HPC)) of the same molecule?
Its survivor count is 0 of 6.

What about the survivor count (dose: 30.0 mg/kg/injection, schedule: Q01DX005 (ip), vehicle: Klucel (hydroxypropylcellulose) (HPC)) of the same molecule?
The survivor count was 0 of 6.

And the survivor count [2]?
Its survivor count is 0 of 6.

What about the survivor count [3] of the same molecule?
Its survivor count is 0 of 6.

From PubChem BioAssay AID330 (DTP/NCI, 2004)
